This note sets out measurements from article PMC11297141.

Protein sequences, listed by entry. Tags and fused reporters are not part of them. Lines headed by an entry give the natural chain unless they say otherwise; changes in a name come on top. Residues count along the entry.
UniProt P22607, residues 23-806: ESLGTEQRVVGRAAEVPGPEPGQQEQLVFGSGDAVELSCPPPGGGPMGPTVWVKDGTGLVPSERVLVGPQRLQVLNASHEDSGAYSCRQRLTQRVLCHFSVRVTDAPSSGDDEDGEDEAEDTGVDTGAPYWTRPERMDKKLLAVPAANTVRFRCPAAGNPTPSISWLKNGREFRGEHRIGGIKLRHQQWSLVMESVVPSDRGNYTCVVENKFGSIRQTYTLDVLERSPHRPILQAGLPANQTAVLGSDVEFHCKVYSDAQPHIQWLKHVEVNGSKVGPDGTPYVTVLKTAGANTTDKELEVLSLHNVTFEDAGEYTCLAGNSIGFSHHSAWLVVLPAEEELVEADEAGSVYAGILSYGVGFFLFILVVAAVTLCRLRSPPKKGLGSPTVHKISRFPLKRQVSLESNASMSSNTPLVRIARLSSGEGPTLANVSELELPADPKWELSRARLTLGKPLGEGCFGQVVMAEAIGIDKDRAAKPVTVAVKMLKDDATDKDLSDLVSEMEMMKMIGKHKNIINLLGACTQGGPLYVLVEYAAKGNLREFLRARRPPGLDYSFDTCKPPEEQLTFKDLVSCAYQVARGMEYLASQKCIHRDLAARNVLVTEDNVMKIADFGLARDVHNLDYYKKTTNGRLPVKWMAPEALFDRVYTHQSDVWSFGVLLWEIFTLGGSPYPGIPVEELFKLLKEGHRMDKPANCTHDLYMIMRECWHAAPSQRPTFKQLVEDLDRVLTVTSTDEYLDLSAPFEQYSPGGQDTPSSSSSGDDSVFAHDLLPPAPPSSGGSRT
UniProt P10636: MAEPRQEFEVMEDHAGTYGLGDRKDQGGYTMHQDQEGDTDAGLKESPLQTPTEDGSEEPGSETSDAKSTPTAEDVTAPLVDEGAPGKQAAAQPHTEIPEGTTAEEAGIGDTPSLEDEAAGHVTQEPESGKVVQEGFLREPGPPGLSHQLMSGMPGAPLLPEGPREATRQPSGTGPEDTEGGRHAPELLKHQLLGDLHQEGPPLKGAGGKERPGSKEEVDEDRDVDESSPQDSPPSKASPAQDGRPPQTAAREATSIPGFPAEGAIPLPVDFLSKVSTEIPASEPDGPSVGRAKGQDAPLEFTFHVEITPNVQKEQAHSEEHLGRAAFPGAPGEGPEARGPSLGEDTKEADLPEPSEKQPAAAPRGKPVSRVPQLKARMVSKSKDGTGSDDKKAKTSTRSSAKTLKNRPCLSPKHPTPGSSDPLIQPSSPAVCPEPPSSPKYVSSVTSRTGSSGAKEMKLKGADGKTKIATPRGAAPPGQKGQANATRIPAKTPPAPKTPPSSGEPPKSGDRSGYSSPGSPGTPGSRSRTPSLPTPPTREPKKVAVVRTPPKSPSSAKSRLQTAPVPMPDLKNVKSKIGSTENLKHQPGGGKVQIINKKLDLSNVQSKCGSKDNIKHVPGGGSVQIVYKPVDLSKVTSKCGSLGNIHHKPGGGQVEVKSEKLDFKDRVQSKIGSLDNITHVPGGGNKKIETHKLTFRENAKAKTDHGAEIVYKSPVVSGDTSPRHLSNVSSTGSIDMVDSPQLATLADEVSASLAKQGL
UniProt Q61851, residues 21-801: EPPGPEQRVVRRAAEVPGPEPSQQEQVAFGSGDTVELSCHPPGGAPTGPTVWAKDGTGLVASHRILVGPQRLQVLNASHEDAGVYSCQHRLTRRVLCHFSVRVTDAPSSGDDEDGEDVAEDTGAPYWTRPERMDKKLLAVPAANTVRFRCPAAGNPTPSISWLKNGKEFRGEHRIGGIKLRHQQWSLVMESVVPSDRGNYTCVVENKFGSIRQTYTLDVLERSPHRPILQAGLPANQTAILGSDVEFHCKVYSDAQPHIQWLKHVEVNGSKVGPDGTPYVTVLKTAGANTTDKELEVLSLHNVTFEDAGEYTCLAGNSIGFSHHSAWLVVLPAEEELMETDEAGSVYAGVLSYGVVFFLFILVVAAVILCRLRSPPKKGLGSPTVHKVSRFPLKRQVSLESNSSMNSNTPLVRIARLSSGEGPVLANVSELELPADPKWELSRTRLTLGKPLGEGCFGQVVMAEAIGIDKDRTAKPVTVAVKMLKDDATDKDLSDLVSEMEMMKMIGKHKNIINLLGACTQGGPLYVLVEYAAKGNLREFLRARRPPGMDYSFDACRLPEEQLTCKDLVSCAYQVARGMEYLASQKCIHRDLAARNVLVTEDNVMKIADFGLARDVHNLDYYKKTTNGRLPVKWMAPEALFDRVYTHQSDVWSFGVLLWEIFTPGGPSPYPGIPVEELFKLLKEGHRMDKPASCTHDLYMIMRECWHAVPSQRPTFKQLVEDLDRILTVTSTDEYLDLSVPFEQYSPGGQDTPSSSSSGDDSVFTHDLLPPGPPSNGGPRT

These are yes or no findings as the source states them, for the method shown. Binding seen in cells or lysates may run through a third protein. Binding calls can cover weak binding; strength is not graded here.

One test deals with FGFR3-FLAG (UniProt P22607). Briefly: co-IP; FGFR3-FLAG immunoprecipitated with an anti-FLAG antibody from HT22 cells overexpressing FGFR3-FLAG and given extracellular tau; blot for tau.
Test [1] has as its target extracellular human tau P301L from tau-conditioned medium (TCM) (human) (UniProt P10636). Description: co-IP; tau immunoprecipitated with the anti-human tau antibody Tau13 from lysates of recipient HT22 cells (given tau-conditioned medium); blots for FGFR3 and LRP1.

As to “extracellular human tau P301L from tau-conditioned medium (TCM) (from UniProt P10636-8)”, in the test with FGFR3-FLAG, the binding result is given as “binds”.

With “fibroblast growth factor receptor 3 (FGFR3), endogenous in mouse neuronal cells (from UniProt Q61851 21-801)”, the binding result in test [1] was “binds”.
